Laboratory results: PubChem BioAssay AID1224830 (NIAID, 2016)
In all, the deposit lists about 18,000 reagents; below is an unselected part. About 2,900 of them (16%) count as active. 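Calls are made per well; low scores hint the gene aids the LPS response, high scores that it dampens it.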 Repeated entries: four replicate wells of each siRNA pool.

Assay: 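Regulators of TLR4 signalling towards TNF-alpha in macrophage-like cells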 (primary screen)
Cell system: human THP-1 monocytic leukaemia cells, TNF dual-luciferase reporter clone, PMA-differentiated to macrophage-like cells
Reagents: siRNA pool against human genes, 50 nM
Time to read-out: LPS for 4 h, given about 3 days after siRNA transfection
Conditions: bacterial LPS (TLR4 ligand), 10 ng/ml
Measurement: 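Ratio of firefly to renilla light, scaled to the plate median and expressed as a robust z-score per replicate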
Direction: TNF reporter robust z-score: higher = stronger TNF reporter response to LPS
Active means: 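a well is active when its z-score exceeds 2.8 or falls below -1.5; control wells carry no call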

no.	Target gene	TNF reporter robust z-score	activity call
1	ZNF74	0.52	inactive
2	ZNF74	0.17	inactive
3	ZNF74	-0.12	inactive
4	ZNF74	0.13	inactive
5	SELENOP	0.29	inactive
6	SELENOP	0.58	inactive
7	SELENOP	-0.46	inactive
8	SELENOP	1.36	inactive
9	GRIP2	-1.83	active
10	GRIP2	-1.8	active
11	GRIP2	-1.87	active
12	GRIP2	-2.13	active
13	KDM1B	0	inactive
14	KDM1B	1.29	inactive
15	KDM1B	-0.25	inactive
16	KDM1B	1.19	inactive
17	KHK	1.41	inactive
18	KHK	2.24	inactive
19	KHK	-0.21	inactive
20	KHK	-0.11	inactive
21	BBS5	-0.42	inactive
22	BBS5	-0.79	inactive
23	BBS5	0.18	inactive
24	BBS5	-0.35	inactive
25	GON4L	1.9	inactive
26	GON4L	1.06	inactive
27	GON4L	0.81	inactive
28	GON4L	2.2	inactive
29	NPIPB15	-0.94	inactive
30	NPIPB15	-1.61	active
31	NPIPB15	-1.18	inactive
32	NPIPB15	-0.19	inactive
33	AGR2	-1.33	inactive
34	AGR2	-1.48	inactive
35	AGR2	-1.43	inactive
36	AGR2	-0.46	inactive
37	RTCA	-1.33	inactive
38	RTCA	-0.78	inactive
39	RTCA	-0.59	inactive
40	RTCA	-0.38	inactive
41	ZBTB9	0.04	inactive
42	ZBTB9	2.81	active
43	ZBTB9	0.85	inactive
44	ZBTB9	2.86	active
45	GABRA2	-0.58	inactive
46	GABRA2	-0.13	inactive
47	GABRA2	-0.92	inactive
48	GABRA2	-1	inactive
49	CD74	-1.92	active
50	CD74	-0.44	inactive
51	CD74	1.41	inactive
52	CD74	-0.02	inactive
53	HDAC1	-0.3	inactive
54	HDAC1	-0.2	inactive
55	HDAC1	-0.52	inactive
56	HDAC1	0.1	inactive
57	LMBRD2	0.04	inactive
58	LMBRD2	-0.8	inactive
59	LMBRD2	0.21	inactive
60	LMBRD2	-1.06	inactive
61	DNAJB9	1.05	inactive
62	DNAJB9	0.79	inactive
63	DNAJB9	0.48	inactive
64	DNAJB9	0.29	inactive
65	GLRB	-0.15	inactive
66	GLRB	0.42	inactive
67	GLRB	-0.33	inactive
68	GLRB	0.82	inactive
69	CCDC74B	-0.25	inactive
70	CCDC74B	0.05	inactive
71	CCDC74B	-1.09	inactive
72	CCDC74B	-0.72	inactive

Sorted by “TNF reporter robust z-score” (ascending): 14 of the entries above.
Target gene	TNF reporter robust z-score	activity call
GRIP2	-2.13	active
GRIP2	-1.87	active
GRIP2	-1.83	active
GRIP2	-1.8	active
SELENOP	-0.46	inactive
ZNF74	-0.12	inactive
KDM1B	0	inactive
ZNF74	0.13	inactive
ZNF74	0.17	inactive
SELENOP	0.29	inactive
ZNF74	0.52	inactive
SELENOP	0.58	inactive
KDM1B	1.29	inactive
SELENOP	1.36	inactive

The list goes on.
no.	Target gene	TNF reporter robust z-score	activity call
73	ZAP70	0.32	inactive
74	ZAP70	1.26	inactive
75	ZAP70	0.9	inactive
76	ZAP70	2.42	inactive
77	PCMTD2	-1.5	inactive
78	PCMTD2	-1.42	inactive
79	PCMTD2	-1.65	active
80	PCMTD2	-0.77	inactive
81	LDLR	-0.72	inactive
82	LDLR	-0.62	inactive
83	LDLR	-0.95	inactive
84	LDLR	-0.9	inactive
85	LUC7L	-1.02	inactive
86	LUC7L	-1.01	inactive
87	LUC7L	-1.25	inactive
88	LUC7L	-1.14	inactive
89	CNNM3	-0.06	inactive
90	CNNM3	0.23	inactive
91	CNNM3	-0.1	inactive
92	CNNM3	-0.45	inactive
93	NR1H3	-0.27	inactive
94	NR1H3	0.18	inactive
95	NR1H3	-0.44	inactive
96	NR1H3	-0.61	inactive
97	CPN1	-1.19	inactive
98	CPN1	-0.08	inactive
99	CPN1	-0.69	inactive
100	CPN1	-0.62	inactive
101	TAS1R1	-0.81	inactive
102	TAS1R1	0.67	inactive
103	TAS1R1	-0.41	inactive
104	TAS1R1	0.68	inactive
105	DNAI4	0.57	inactive
106	DNAI4	1.54	inactive
107	DNAI4	3.09	active
108	DNAI4	-0.9	inactive
109	MRPS34	1.33	inactive
110	MRPS34	1.26	inactive
111	MRPS34	1.17	inactive
112	MRPS34	1.16	inactive
